Compound in the assay: Nc1ncnc2c1ncn2[C@@H]1O[C@H](COP(=O)(O)OP(=O)(O)OP(=O)(O)O)[C@@H](O)[C@H]1O [adenosine triphosphate]
Briefly: NP40-soluble protein abundance relative to vehicle (solubility fold change) (ratio); higher = more soluble protein in presence of ATP. The essentials: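 Across three independent experiments, values are fold changes against the detergent-processed vehicle for each replicate, based on vsn-normalised intensities. The samples were Jurkat crude lysate treated with eight concentrations (0.1 to 10 mM) for 10 min at room temperature and then 3 min at 37 °C. Lysate was solubilised with 0.8% NP40 and benzonase, ultracentrifuged, and the supernatant analysed by TMT-labelled LC-MS/MS.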

Protein sequences, listed by entry. Tags and fused reporters are not part of them. Lines headed by an entry give the natural chain unless they say otherwise; changes in a name come on top.
UniProt P56556, whole entry: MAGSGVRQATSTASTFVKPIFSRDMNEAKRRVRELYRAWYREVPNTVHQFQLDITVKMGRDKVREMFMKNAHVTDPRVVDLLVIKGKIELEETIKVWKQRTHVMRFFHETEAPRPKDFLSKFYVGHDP
UniProt Q9H2U2: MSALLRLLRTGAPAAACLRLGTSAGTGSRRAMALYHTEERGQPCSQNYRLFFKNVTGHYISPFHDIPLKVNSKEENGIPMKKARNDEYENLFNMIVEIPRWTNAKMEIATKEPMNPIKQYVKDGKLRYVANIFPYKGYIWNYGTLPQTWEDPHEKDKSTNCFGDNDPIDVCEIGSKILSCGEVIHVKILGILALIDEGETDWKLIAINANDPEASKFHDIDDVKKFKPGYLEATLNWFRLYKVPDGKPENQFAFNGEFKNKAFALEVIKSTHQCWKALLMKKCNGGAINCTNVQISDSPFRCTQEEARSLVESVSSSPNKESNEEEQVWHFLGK
UniProt Q3LXA3: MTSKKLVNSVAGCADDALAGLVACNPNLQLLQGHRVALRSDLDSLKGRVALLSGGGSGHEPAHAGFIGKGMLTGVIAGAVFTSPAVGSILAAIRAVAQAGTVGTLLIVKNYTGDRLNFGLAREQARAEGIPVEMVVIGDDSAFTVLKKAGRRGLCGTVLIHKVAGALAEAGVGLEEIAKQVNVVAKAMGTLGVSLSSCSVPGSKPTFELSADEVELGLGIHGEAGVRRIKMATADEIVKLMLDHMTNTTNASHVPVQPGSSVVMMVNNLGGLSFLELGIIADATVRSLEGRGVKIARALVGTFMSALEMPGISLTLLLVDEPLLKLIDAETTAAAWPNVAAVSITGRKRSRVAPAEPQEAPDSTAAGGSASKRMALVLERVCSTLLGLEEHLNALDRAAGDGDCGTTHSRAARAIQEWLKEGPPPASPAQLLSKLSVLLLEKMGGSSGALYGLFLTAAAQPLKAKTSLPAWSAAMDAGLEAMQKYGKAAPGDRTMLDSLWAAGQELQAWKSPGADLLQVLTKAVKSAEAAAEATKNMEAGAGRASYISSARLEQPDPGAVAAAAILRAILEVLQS
UniProt P04114: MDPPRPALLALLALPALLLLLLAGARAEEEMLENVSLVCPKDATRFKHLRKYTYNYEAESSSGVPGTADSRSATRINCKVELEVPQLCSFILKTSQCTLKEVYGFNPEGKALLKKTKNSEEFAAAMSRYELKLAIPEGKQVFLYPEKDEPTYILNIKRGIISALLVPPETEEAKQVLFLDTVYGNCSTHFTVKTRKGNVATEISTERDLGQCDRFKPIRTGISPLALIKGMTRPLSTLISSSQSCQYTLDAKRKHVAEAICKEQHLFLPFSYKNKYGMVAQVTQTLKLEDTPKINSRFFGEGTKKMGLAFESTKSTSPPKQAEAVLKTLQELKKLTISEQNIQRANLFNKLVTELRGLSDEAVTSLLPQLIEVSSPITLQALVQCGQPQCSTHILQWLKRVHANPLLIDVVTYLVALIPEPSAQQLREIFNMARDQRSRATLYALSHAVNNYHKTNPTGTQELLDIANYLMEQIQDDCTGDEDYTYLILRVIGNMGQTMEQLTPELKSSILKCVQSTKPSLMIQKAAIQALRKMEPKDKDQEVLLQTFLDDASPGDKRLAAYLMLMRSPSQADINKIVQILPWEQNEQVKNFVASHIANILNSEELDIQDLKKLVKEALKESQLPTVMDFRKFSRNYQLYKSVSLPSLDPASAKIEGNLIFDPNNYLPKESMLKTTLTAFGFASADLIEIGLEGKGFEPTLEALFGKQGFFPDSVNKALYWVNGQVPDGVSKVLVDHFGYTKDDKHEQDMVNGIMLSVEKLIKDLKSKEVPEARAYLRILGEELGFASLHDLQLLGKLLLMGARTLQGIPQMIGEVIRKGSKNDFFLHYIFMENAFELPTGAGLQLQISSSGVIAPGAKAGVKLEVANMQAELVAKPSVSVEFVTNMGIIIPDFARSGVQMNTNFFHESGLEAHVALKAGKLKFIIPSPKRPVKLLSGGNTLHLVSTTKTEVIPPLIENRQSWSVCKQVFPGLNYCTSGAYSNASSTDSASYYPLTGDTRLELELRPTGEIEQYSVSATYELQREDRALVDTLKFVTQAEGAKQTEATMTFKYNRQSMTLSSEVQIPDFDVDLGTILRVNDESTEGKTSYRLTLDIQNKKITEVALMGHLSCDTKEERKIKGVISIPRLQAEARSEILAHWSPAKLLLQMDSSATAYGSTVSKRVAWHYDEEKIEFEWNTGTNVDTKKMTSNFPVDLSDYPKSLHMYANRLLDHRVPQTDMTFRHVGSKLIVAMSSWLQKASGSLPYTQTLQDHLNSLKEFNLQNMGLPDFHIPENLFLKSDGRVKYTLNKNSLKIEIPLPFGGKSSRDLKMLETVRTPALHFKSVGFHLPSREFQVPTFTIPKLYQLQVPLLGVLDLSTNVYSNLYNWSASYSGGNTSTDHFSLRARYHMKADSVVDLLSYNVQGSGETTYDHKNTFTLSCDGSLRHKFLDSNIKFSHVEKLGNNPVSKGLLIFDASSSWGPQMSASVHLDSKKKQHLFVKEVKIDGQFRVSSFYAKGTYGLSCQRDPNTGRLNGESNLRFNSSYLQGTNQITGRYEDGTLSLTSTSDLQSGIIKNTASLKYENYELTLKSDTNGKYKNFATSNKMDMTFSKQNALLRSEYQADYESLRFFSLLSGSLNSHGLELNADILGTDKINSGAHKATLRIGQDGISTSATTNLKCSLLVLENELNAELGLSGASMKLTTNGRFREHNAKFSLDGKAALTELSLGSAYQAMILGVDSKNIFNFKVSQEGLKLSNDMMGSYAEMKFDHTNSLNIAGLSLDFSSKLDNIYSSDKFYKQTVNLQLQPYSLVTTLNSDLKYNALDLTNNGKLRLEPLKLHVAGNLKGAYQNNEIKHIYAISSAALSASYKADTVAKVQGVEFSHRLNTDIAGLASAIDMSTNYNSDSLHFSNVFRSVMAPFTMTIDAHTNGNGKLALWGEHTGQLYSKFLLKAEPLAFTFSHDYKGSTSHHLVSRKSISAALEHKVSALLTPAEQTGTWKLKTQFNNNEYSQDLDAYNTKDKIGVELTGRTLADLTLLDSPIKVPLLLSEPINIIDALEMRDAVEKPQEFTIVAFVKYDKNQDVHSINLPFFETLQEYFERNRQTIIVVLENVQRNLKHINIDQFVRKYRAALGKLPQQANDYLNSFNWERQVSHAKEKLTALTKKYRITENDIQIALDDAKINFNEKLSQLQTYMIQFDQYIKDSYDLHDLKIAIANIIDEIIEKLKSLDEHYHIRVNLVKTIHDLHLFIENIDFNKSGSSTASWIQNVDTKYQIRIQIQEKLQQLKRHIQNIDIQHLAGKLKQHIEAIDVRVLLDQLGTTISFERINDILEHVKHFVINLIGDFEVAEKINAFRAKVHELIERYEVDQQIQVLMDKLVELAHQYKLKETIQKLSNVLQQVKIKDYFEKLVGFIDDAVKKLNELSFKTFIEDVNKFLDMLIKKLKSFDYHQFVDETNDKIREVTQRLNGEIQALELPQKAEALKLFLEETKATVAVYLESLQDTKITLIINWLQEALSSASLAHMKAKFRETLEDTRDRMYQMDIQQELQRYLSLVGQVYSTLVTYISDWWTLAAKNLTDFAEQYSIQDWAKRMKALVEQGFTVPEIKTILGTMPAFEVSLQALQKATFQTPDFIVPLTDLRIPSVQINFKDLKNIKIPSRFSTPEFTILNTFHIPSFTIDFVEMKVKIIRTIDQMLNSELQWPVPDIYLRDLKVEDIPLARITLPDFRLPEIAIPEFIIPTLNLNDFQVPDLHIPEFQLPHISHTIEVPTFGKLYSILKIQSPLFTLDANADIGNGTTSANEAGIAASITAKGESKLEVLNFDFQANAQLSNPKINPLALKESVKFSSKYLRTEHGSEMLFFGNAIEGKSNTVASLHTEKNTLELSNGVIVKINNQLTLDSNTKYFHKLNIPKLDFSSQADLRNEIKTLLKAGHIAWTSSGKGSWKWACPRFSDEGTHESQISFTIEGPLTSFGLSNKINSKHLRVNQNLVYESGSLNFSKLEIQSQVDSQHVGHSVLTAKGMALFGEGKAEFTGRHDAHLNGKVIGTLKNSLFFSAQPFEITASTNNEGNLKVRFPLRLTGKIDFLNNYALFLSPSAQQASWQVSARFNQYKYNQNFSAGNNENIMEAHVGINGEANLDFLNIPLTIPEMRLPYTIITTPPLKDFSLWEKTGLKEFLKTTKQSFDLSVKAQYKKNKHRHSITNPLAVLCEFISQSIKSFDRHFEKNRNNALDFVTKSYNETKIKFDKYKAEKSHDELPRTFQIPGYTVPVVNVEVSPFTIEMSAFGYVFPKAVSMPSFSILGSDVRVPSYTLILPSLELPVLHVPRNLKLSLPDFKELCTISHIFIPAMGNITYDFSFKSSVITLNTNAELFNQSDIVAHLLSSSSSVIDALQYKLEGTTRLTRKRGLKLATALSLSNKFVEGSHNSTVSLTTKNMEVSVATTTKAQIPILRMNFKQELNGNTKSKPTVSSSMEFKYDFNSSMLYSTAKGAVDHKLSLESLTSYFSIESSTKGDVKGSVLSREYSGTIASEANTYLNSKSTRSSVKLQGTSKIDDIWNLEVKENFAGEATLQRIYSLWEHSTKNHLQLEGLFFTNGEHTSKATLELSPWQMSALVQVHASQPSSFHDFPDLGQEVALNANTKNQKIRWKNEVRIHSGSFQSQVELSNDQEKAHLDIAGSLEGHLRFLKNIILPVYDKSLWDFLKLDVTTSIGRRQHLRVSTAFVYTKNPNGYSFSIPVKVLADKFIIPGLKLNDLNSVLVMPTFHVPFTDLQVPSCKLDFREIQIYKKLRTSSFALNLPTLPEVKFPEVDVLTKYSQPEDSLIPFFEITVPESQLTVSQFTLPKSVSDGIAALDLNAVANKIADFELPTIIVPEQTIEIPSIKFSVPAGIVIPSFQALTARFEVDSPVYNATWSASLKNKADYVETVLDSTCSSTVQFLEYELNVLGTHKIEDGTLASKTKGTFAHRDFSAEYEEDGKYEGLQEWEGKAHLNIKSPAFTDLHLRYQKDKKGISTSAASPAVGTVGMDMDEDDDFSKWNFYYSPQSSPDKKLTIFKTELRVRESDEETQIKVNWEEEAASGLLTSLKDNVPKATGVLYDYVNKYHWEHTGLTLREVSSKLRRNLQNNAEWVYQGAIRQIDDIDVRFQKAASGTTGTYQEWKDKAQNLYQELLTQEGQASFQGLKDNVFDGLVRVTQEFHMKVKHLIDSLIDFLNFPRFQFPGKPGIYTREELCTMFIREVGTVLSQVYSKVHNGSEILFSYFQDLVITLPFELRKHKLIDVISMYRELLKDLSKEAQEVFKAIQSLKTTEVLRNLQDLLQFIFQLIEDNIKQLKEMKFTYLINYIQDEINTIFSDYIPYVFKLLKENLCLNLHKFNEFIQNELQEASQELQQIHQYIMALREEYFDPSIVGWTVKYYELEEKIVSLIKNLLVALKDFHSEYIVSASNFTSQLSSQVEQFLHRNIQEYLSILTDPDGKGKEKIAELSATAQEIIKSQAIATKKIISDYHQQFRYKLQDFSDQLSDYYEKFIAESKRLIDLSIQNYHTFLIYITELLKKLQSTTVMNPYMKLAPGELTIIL
UniProt Q86YR5: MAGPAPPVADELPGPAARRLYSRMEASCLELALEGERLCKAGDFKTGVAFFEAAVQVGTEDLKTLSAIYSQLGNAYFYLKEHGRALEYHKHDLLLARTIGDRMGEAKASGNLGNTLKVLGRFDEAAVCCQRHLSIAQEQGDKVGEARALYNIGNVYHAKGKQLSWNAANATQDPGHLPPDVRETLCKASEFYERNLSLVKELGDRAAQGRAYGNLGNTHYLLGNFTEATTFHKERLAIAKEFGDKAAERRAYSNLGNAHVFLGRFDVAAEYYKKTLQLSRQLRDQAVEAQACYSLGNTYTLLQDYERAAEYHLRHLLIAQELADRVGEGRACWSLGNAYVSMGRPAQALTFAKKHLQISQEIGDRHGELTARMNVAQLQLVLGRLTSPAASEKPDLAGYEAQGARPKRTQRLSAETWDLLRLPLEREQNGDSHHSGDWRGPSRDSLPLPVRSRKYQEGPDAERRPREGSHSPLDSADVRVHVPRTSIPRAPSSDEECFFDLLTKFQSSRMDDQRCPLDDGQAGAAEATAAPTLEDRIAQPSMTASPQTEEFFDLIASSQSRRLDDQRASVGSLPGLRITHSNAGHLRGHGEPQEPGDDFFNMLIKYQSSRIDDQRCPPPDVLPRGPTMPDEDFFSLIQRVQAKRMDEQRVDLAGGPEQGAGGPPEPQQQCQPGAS
UniProt Q9Y2Y9: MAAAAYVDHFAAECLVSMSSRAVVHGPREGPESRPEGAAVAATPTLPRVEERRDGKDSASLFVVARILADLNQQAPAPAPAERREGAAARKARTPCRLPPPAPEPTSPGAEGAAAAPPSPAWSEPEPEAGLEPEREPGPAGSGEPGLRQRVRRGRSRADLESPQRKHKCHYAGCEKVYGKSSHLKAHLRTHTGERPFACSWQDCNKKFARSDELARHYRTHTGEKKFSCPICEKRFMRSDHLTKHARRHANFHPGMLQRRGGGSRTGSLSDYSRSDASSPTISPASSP

This note sets out measurements from the supplement of paper PMC6411743.

± gives the standard deviation of the averaged measurements. The list shows a part of the results, in another mix than the full data. Most entries show no effect beyond the scatter of the controls.

“A0A075B6F5|F5GXR6 and related entries (UniProt Q8IUG5)”: the NP40-soluble protein abundance runs as follows: (concentration: 0.1mM) 1.05 ± 0.013; (concentration: 0.5mM) 0.933 ± 0.026; (concentration: 1mM) 0.986 ± 0.023; (concentration: 2mM) 0.927 ± 0.014; (concentration: 4mM) 1.1 ± 0.016; (concentration: 6mM) 1.06 ± 0.022. In addition, the NP40-soluble protein abundance is 1.14 ± 0.13 (concentration: 8mM) and 1.18 ± 0.18 (concentration: 10mM).
Regarding “A0A0B4J2E8|Q96D31 and related entries (UniProt Q96D31)”, the NP40-soluble protein abundance by setting is: (concentration: 0.1mM) 1.02 ± 0.012; (concentration: 0.5mM) 0.923 ± 0.1.
“A0A0A0MSV9|A0A0G2JH37|A0A0G2JKZ1|A2AB90 and related entries (UniProt O15533)”: the NP40-soluble protein abundance by setting is: (concentration: 0.1mM) 1.07 ± 0.076; (concentration: 0.5mM) 1.05 ± 0.12; (concentration: 1mM) 1.04 ± 0.066; (concentration: 2mM) 1.02 ± 0.067; (concentration: 4mM) 0.986 ± 0.028; (concentration: 6mM) 0.968 ± 0.047. Further, the NP40-soluble protein abundance (concentration: 8mM) was determined as 0.99 ± 0.085 and the NP40-soluble protein abundance (concentration: 10mM) came to 0.984 ± 0.088.
As to A0A0A0MRR7|P09234 (UniProt P09234), the NP40-soluble protein abundance (concentration: 0.1mM) is 0.998 ± 0.11; the NP40-soluble protein abundance (concentration: 0.5mM) is 1.21 ± 0.058; the NP40-soluble protein abundance (concentration: 1mM) was found to be 1.34 ± 0.087; the NP40-soluble protein abundance (concentration: 2mM) amounted to 1.39 ± 0.078; the NP40-soluble protein abundance (concentration: 4mM) was 1.56 ± 0.062; the NP40-soluble protein abundance (concentration: 6mM) worked out at 1.87 ± 0.2. Further, the NP40-soluble protein abundance reads like this: (concentration: 8mM) 1.83 ± 0.041; (concentration: 10mM) 1.84 ± 0.1.
As to A0A0C4DGS0|P56556 (UniProt P56556), the NP40-soluble protein abundance was 0.917 ± 0.055 (concentration: 0.1mM); 0.944 ± 0.14 (concentration: 0.5mM); 0.969 ± 0.066 (concentration: 1mM); 0.922 ± 0.055 (concentration: 2mM); 0.901 ± 0.046 (concentration: 4mM); 0.875 ± 0.066 (concentration: 6mM). For the same target, the NP40-soluble protein abundance is, setting by setting: (concentration: 8mM) 0.926 ± 0.053; (concentration: 10mM) 0.909 ± 0.031.
With A0A0C4DGB9|Q9H2U2 (UniProt Q9H2U2), the NP40-soluble protein abundance worked out at 1.02 ± 0.04 (concentration: 0.1mM); 1.01 ± 0.031 (concentration: 0.5mM); 0.971 ± 0.022 (concentration: 1mM); 0.97 ± 0.029 (concentration: 2mM); 0.953 ± 0.03 (concentration: 4mM); 0.93 ± 0.051 (concentration: 6mM). In addition, the NP40-soluble protein abundance (concentration: 8mM) is 0.952 ± 0.038 and the NP40-soluble protein abundance (concentration: 10mM) was determined as 0.919 ± 0.037.
For the target A0A087WUL0|Q3LXA3 (UniProt Q3LXA3), the NP40-soluble protein abundance runs as follows: (concentration: 0.1mM) 0.979 ± 0.013; (concentration: 0.5mM) 0.979 ± 0.013.
On to A0A075B738|P16284 (UniProt P16284), for which the NP40-soluble protein abundance (concentration: 0.1mM) worked out at 0.949 ± 0.021 and the NP40-soluble protein abundance (concentration: 0.5mM) came out at 0.926 ± 0.034.
As to “A0A0B4J2C3|P13693 and related entries (UniProt P13693)”, the NP40-soluble protein abundance is 0.98 ± 0.017 (concentration: 0.1mM); 0.982 ± 0.021 (concentration: 0.5mM); 0.95 ± 0.025 (concentration: 1mM); 0.942 ± 0.021 (concentration: 2mM); 0.915 ± 0.025 (concentration: 4mM); 0.923 ± 0.05 (concentration: 6mM). Further, the NP40-soluble protein abundance stood at 0.919 ± 0.035 (concentration: 8mM) and 0.909 ± 0.048 (concentration: 10mM).
On to “A0A0A0MT22|M9MML4 and related entries (UniProt P08575)”, for which the NP40-soluble protein abundance came out at 0.9793 ± 0.0079 (concentration: 0.1mM); 0.985 ± 0.024 (concentration: 0.5mM); 0.946 ± 0.026 (concentration: 1mM); 0.9679 ± 0.0084 (concentration: 2mM); 0.9321 ± 0.0056 (concentration: 4mM); 0.967 ± 0.014 (concentration: 6mM). Moreover, the NP40-soluble protein abundance (concentration: 8mM) came out at 0.918 ± 0.018 and the NP40-soluble protein abundance (concentration: 10mM) amounted to 0.943 ± 0.036.
In the case of A0A0A0MTB8|Q8NI36 (UniProt Q8NI36), the NP40-soluble protein abundance is 1.06 ± 0.054 (concentration: 0.1mM); 1.12 ± 0.05 (concentration: 0.5mM); 1.21 ± 0.057 (concentration: 1mM); 1.37 ± 0.057 (concentration: 2mM); 1.68 ± 0.13 (concentration: 4mM); 1.86 ± 0.23 (concentration: 6mM). Further, the NP40-soluble protein abundance by setting is: (concentration: 8mM) 2.12 ± 0.14; (concentration: 10mM) 2.17 ± 0.17.
Regarding A0A087WUK2|O14979-3 (UniProt O14979), the NP40-soluble protein abundance by setting is: (concentration: 0.1mM) 0.997 ± 0.034; (concentration: 0.5mM) 1.03 ± 0.049.
Regarding “A0A0A0MQS0|A8MW92 and related entries (UniProt A8MW92)”, the NP40-soluble protein abundance (concentration: 0.1mM) amounted to 0.95 ± 0.037 and the NP40-soluble protein abundance (concentration: 0.5mM) came to 1.02 ± 0.029.
In the case of “A0A075B6T1|Q9C0C7 and related entries (UniProt Q9C0C7)”, the NP40-soluble protein abundance is, setting by setting: (concentration: 0.1mM) 0.94 ± 0.12; (concentration: 0.5mM) 0.87 ± 0.076.
Consider A0A087WUW9|Q9NXU5 (UniProt Q9NXU5), for which the NP40-soluble protein abundance reads like this: (concentration: 0.1mM) 1.02 ± 0.013; (concentration: 0.5mM) 1.02 ± 0.077.
Taken in the same sequence, the figures for A0A0C4DGH3|Q9Y6R0 (UniProt Q9Y6R0) were 1.01 ± 0.032 and 1.26 ± 0.018.
Turning to A0A087WTM7|P04114 (UniProt P04114), the NP40-soluble protein abundance is, setting by setting: (concentration: 0.1mM) 1.1 ± 0.11; (concentration: 0.5mM) 0.949 ± 0.064; (concentration: 1mM) 1.09 ± 0.039; (concentration: 2mM) 1.05 ± 0.029; (concentration: 4mM) 0.98 ± 0.11; (concentration: 6mM) 0.965 ± 0.086. For the same target, the NP40-soluble protein abundance was 0.976 ± 0.082 (concentration: 8mM) and 0.989 ± 0.074 (concentration: 10mM).
For A0A0A0MTC1|A0A0A0MTR7 (UniProt Q63HN8), the NP40-soluble protein abundance stood at 1.05 ± 0.063 (concentration: 0.1mM); 1.09 ± 0.049 (concentration: 0.5mM); 1.15 ± 0.14 (concentration: 1mM); 1.11 ± 0.096 (concentration: 2mM); 1.12 ± 0.083 (concentration: 4mM); 1.03 ± 0.074 (concentration: 6mM). The NP40-soluble protein abundance reads like this: (concentration: 8mM) 1.2 ± 0.049; (concentration: 10mM) 1.11 ± 0.031.
Take “A0A0A0MSK4|Q86YR5 and related entries (UniProt Q86YR5)”: the NP40-soluble protein abundance is, setting by setting: (concentration: 0.1mM) 0.9964 ± 0.0096; (concentration: 0.5mM) 0.961 ± 0.035; (concentration: 1mM) 0.972 ± 0.037; (concentration: 2mM) 0.99 ± 0.074; (concentration: 4mM) 0.9991 ± 0.0089; (concentration: 6mM) 1.018 ± 0.0076. Further, the NP40-soluble protein abundance was found to be 0.96 ± 0.021 (concentration: 8mM) and 0.981 ± 0.05 (concentration: 10mM).
With “A0A0B4J1Z1|C9JAB2 and related entries (UniProt Q16629)”, the NP40-soluble protein abundance came to 1.08 ± 0.13 (concentration: 0.1mM); 1.46 ± 0.21 (concentration: 0.5mM); 1.7 ± 0.28 (concentration: 1mM); 1.77 ± 0.28 (concentration: 2mM); 1.89 ± 0.28 (concentration: 4mM); 2.04 ± 0.31 (concentration: 6mM). Further, the NP40-soluble protein abundance runs as follows: (concentration: 8mM) 1.98 ± 0.38; (concentration: 10mM) 2.09 ± 0.36.
Turning to A0A087WYN9|Q7Z478 (UniProt Q7Z478), the NP40-soluble protein abundance amounted to 1.21 ± 0.022 (concentration: 0.1mM); 2.1 ± 0.045 (concentration: 0.5mM); 2.24 ± 0.062 (concentration: 1mM); 2.31 ± 0.051 (concentration: 2mM); 2.45 ± 0.092 (concentration: 4mM); 2.57 ± 0.045 (concentration: 6mM). Also, the NP40-soluble protein abundance was found to be 2.68 ± 0.07 (concentration: 8mM) and 2.74 ± 0.062 (concentration: 10mM).
As for A0A087WV29|Q9H0A0 (UniProt Q9H0A0), the NP40-soluble protein abundance by setting is: (concentration: 0.1mM) 1.09 ± 0.052; (concentration: 0.5mM) 1.13 ± 0.03; (concentration: 1mM) 1.2 ± 0.1; (concentration: 2mM) 1.37 ± 0.1; (concentration: 4mM) 1.59 ± 0.11; (concentration: 6mM) 1.69 ± 0.18. Moreover, the NP40-soluble protein abundance was determined as 2.15 ± 0.14 (concentration: 8mM) and 2.32 ± 0.22 (concentration: 10mM).
As to A0A087X1K6|Q9Y2Y9 (UniProt Q9Y2Y9), the NP40-soluble protein abundance (concentration: 0.1mM) was determined as 0.996 ± 0.052 and the NP40-soluble protein abundance (concentration: 0.5mM) worked out at 0.937 ± 0.026.
